This is an account of results in the supplement of paper PMC7580552.

Each structure is given as a SMILES string. Where a name gives a salt, the structure may show the parent alone. The list shows a part of the results. Part of the spread comes from offsets between plates or batches.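 Biofilm, quantified by the absorbance of well-retained crystal violet, is assayed using the K-12 laboratory model grown unshaken in 96-well plates. Candidate specific biofilm inhibitors were drugs that sharply lowered staining yet reduced free-floating growth by less than 70%.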

The experiment deals with Escherichia coli W3110. Description: biofilm formation (crystal violet staining) relative to untreated control; higher = more biofilm. Particulars: 10 µM; 20-24 h; 30 °C; TB.
On to `COc1ccc([C@@H]2Sc3ccccc3N(CCN(C)C)C(=O)[C@@H]2OC(C)=O)cc1` [Diltiazem hydrochloride], for which the biofilm formation was determined as 72%.
`CC(C[N+](C)(C)C)OC(N)=O` (stereo not given) [Bethanechol chloride] registered a biofilm formation of 66%.
Consider `NCCc1cc[nH]n1` [Betazole hydrochloride], for which the biofilm formation worked out at 66%.
As to `CCCNC(C)C(=O)Nc1c(C)csc1C(=O)OC` (stereo not given) [Articaine hydrochloride], the biofilm formation turned out to be 84%.
Consider `COc1cccc(N(C)C(=S)Oc2ccc3c(c2)CCCC3)n1` [Liranaftate], for which the biofilm formation amounted to 74%.
`Cc1c(NC(C)C)c(=O)n(-c2ccccc2)n1C` [Isopyrin hydrochloride] returned a biofilm formation of 95%.
In the case of `C[C@]12CCC(=O)C=C1C=C[C@@H]1[C@@H]2CC[C@@]2(C)[C@H]1CC[C@@]21CCC(=O)O1` [Canrenone] it was 97%; in that of `NC(=O)OCC(O)COc1ccc(Cl)cc1` (stereo not given) [Chlorphensin carbamate], 90%; in that of `COC(=O)CCc1ccc(OCC(O)CNC(C)C)cc1` (stereo not given) [Esmolol hydrochloride], 78%.
Under `CN1C(C(=O)Nc2ccccn2)=C(O)c2ccccc2S1(=O)=O` [Piroxicam] stands 91%; under `COCCOC(=O)C1=C(C)NC(C)=C(C(=O)OC(C)C)C1c1cccc([N+](=O)[O-])c1` (stereo not given) [Nimodipine], 41%.
In the case of `CNCCC=C1c2ccccc2C=Cc2ccccc21` [Norcyclobenzaprine] it was 69%; in that of `Cc1ccc(C)c(OCCCC(C)(C)C(=O)O)c1` [Gemfibrozil], 77%; in that of `O=C(O)C[C@H](O)C[C@H](O)/C=C/c1c(C2CC2)nc2ccccc2c1-c1ccc(F)cc1` [Pitavastatin calcium], 81%.
As to `O=C(CCCN1CCC(O)(c2ccc(Cl)cc2)CC1)c1ccc(F)cc1` [Haloperidol], the biofilm formation amounted to 43%.
Compound `CN(Cc1ccc(C(C)(C)C)cc1)Cc1cccc2ccccc12` [Butenafine Hydrochloride] displayed a biofilm formation of 69%.
`CCCCCCCCNC(C)C(O)c1ccc(SC(C)C)cc1` (stereo not given) [Suloctidil] registered a biofilm formation of 81%.
Regarding `CC(=O)CC(c1ccc([N+](=O)[O-])cc1)c1c(O)c2ccccc2oc1=O` (stereo not given) [Acenocoumarol], the biofilm formation is 86%.
`S=c1[nH]cnc2nc[nH]c12` [Mercaptopurine] yielded a biofilm formation of 79%.
In the case of `COc1ccc2c3c1O[C@H]1C[C@@H](O)C=C[C@@]31CCN(C)C2` [Galanthamine hydrobromide], the biofilm formation worked out at 61%.
`Cc1nnc(SCC2=C(C(=O)O)N3C(=O)[C@@H](NC(=O)Cn4cnnn4)[C@H]3SC2)s1` [Cefazolin sodium salt] had a biofilm formation of 15%.
In turn, `O=c1[nH]c(=O)n([C@H]2C[C@H](O)[C@@H](CO)O2)cc1C(F)(F)F` [Trifluridine] had a biofilm formation of 87%.
As to `CC(C)NC(=N)NC(=N)Nc1ccc(Cl)cc1` [Proguanil hydrochloride], the biofilm formation came to 63%.
For `CC(C)Cn1cnc2c(N)nc3ccccc3c21` [Imiquimod], the biofilm formation was 79%.
In the case of `NC(=O)N1c2ccccc2CC(=O)c2ccccc21` [Oxcarbazepine], the biofilm formation turned out to be 93%.
Under `Cc1cccc(Nc2ccncc2S(=O)(=O)NC(=O)NC(C)C)c1` [Torsemide] stands 119%; under `CC[N+](CC)(CC(=O)Nc1c(C)cccc1C)Cc1ccccc1` [Denatonium benzoate], 98%; under `COc1cc(NS(=O)(=O)c2ccc(N)cc2)nc(OC)n1` [Sulfadimethoxine], 43%.
In the case of `CC1(C)O[C@@H]2[C@@H](CO[C@@]3(COS(N)(=O)=O)OC(C)(C)O[C@@H]23)O1` [Topiramate], the biofilm formation was 69%.
Compound `CN(C)c1cc(NC(=O)CNC(C)(C)C)c(O)c2c1C[C@H]1C[C@H]3[C@H](N(C)C)C(O)=C(C(N)=O)C(=O)[C@@]3(O)C(O)=C1C2=O` [Tigecycline] came in with a biofilm formation of 50%.
Under `Cc1nccn1CC1CCc2c(c3ccccc3n2C)C1=O` (stereo not given) [Ondansetron Hydrochloride] stands 79%.
`CC(=O)NC[C@H]1CN(c2ccc(N3CCOCC3)c(F)c2)C(=O)O1` [Linezolid] came in with a biofilm formation of 99%.
The compound `COc1ccc2c(c1)c(CC(=O)OCC(=O)O)c(C)n2C(=O)c1ccc(Cl)cc1` [Acemetacin] registered a biofilm formation of 55%.
The compound `CCOCCn1c(N2CCCN(C)CC2)nc2ccccc21` [Emedastine] gave a biofilm formation of 97%.
With `Cc1cccn2c(=O)c(-c3nnn[nH]3)cnc12` [Pemirolast potassium], the biofilm formation worked out at 58%.
Under `CC[C@H](C)C(=O)O[C@H]1C[C@H](O)C=C2C=C[C@H](C)[C@H](CC[C@@H](O)C[C@@H](O)CC(=O)O)[C@H]21` [Pravastatin] stands 106%; under `CC(C)(C)NCC(O)COc1cccc2c1CC(O)C(O)C2` (stereo not given) [Nadolol], 70%; under `C#CC1(O)CC[C@H]2[C@@H]3CCC4=CC(=O)CC[C@@H]4[C@H]3CC[C@@]21CC` (stereo partly drawn) [Norgestrel-(-)], 78%.
Under `Cc1cccc(C)c1NC(=O)CN1CCN(CCCC(c2ccc(F)cc2)c2ccc(F)cc2)CC1` [Lidoflazine] stands 83%.
`CC(=O)O[C@]1(C(C)=O)CC[C@H]2[C@@H]3C=C(C)C4=CC(=O)CC[C@]4(C)[C@H]3CC[C@@]21C` [Megestrol acetate] showed a biofilm formation of 77%.
Compound `Nc1nnc(-c2cccc(Cl)c2Cl)c(N)n1` [Lamotrigine] came in with a biofilm formation of 69%.
Compound `CC[C@@]1(O)C(=O)OCc2c1cc1n(c2=O)Cc2cc3c(CN(C)C)c(O)ccc3nc2-1` [Topotecan] showed a biofilm formation of 112%.
As for `Clc1cc(Cl)c(OCC#CI)cc1Cl` [Haloprogin], the biofilm formation was 53%.
In the case of `Nc1nc(=O)[nH]cc1F` [Flucytosine] it was 53%; in that of `O=C(Nc1ccccc1)OCC(CN1CCCCC1)OC(=O)Nc1ccccc1` (stereo not given) [Diperodon hydrochloride], 72%; in that of `CCCC(=O)Nc1ccc(OCC(O)CNC(C)C)c(C(C)=O)c1` (stereo not given) [Acebutolol hydrochloride], 67%.
`CC(=O)Nc1ccc(OCC(O)CNC(C)C)cc1` (stereo not given) [Practolol] came in with a biofilm formation of 55%.
Consider `CN1[C@@H]2CC[C@H]1C[C@@H](OC(c1ccccc1)c1ccccc1)C2` [Benztropine mesylate], for which the biofilm formation stood at 78%.
As to `N=C(N=C(N)N)N1CCOCC1` [Moroxidine hydrochloride], the biofilm formation is 66%.
Take `CC(=O)OCC(=O)[C@@]12OC3(CCCC3)O[C@@H]1C[C@H]1[C@@H]3CCC4=CC(=O)C=C[C@]4(C)[C@@]3(F)[C@@H](O)C[C@@]12C` [Amcinonide]: the biofilm formation is 72%.
